# Percent effect of library compounds

The chains behind the UniProt entries cited, without tags or fusion partners. Residues count along the entry.
UniProt A4I591, 1-473: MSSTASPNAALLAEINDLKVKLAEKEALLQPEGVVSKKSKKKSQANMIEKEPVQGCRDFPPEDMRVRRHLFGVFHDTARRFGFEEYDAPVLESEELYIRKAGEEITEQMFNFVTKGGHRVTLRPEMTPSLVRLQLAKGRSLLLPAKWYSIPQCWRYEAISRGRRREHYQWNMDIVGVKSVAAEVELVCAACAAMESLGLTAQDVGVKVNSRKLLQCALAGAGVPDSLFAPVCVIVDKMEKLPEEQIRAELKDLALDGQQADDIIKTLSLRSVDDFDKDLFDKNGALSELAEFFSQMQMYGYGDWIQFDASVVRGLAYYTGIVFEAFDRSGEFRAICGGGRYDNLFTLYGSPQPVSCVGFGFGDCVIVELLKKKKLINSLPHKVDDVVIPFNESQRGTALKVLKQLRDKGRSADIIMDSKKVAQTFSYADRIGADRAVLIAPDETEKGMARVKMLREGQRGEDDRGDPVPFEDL

A: 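Enzyme assay of histidyl-tRNA synthetase; the read-out is not stated. Target: Histidine-tRNA ligase, Leishmania infantum (UniProt A4I591). Compounds at 30 µM. The record gives no direction; compounds that gave an IC50 in retests scored well above the rest, so higher reads as stronger inhibition. The assay is labelled LdHisRS but filed under L. infantum. About 69,000 compounds were tested under these conditions; 0.6% (about 410) showed 50% or more at least once.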
B: 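Assay of Toxoplasma gondii numbers, read through their beta-galactosidase reporter with a colour substrate. Concentration: 10 µM. The record gives no direction; the compounds picked for IC50 retests had high values, so higher reads as fewer parasites. Size under these conditions: about 67,000 compounds, about 260 of them at 50% or above in at least one test.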

Results are given as percent effect. The controls that fix the scale are not given in the record; negative values are as filed. Compounds were drawn at random from those tested, without regard to their results. A dash means the value is not listed here; it may have been measured.

Compound	A	B
CC(C)c1nsc(N2CCn3c(nnc3C(F)(F)F)C2)n1	20.69	-2.051
CCOC(=O)c1coc(N2CCN(C(=O)c3cccc(OC)c3)CC2)n1	26.19	5.167
O=C(c1cnco1)N1CCCC(Cc2cccc3ncccc23)C1 (configuration not stated)	13.89	4.164
O=C1NCCCc2[nH]c(Cc3cccc(F)c3)nc21	14.53	-9.296
CC(C)CC(=O)NC1CC2(CCN(CCF)CC2)Oc2ccccc21.O=C(O)C(F)(F)F (configuration not stated)	-	-26.74
Cc1nc(CNC(C(=O)N2CCOCC2)c2ccccc2)cs1 (configuration not stated)	5.882	1.199
COc1ccccc1-c1cc(C(=O)N2CCCC2)c2cnn(C)c2n1	9.655	22.52
COCCN1C[C@@H](C)[C@@]2(COCCN(C(=O)Cc3ccccc3)C2)C1.O=C(O)C(F)(F)F	-	1.816
Cc1nn(CC(=O)N2CCN(c3ccccc3F)CC2)c(C)c1Cl	-19.81	1.387
Brc1cc(CNCc2nnc3n2CCC3)cs1	25	-
CC(=O)NC1Cc2ccc(S(=O)(=O)NCCNc3ccccn3)cc2C1 (configuration not stated)	1.429	7.001
Cc1noc(C)c1CN1CCC2(CC1)NC(=O)CC2c1cnn(C)c1 (configuration not stated)	2.778	8.564
COCCC(C)NCc1ccccc1-n1ccnc1 (configuration not stated)	12.4	-10.96
O=C(O)C(F)(F)F.[H][C@]12CCC[C@@H](CNc3ccccn3)[C@@]1([H])CN(Cc1cccnc1)C2	-	5.977
Cc1occc1C(=O)N1CCc2c(CNc3ncccn3)cncc2C1	14.71	-
Cc1noc(C)c1CCC(=O)N1CCN(CCn2cccn2)CC1	17.31	-0.4379
CCOCCCC(=O)NC1CCN(C(C)c2ccccc2)CC1 (configuration not stated)	4.464	2.519
O=c1ccc2c([nH]1)CCC(NCc1ccc(F)cc1)C2 (configuration not stated)	-9.722	-
COc1ncc(CN2CCC3(CCNC(=O)CC3)CC2)cn1	9.333	7.512
Cc1ncc(C(=O)N2CCCN(Cc3ccccc3F)CC2)c(O)n1	20.51	-4.793
Cc1c[nH]c(C2COCCN2C(=O)c2ccc(=O)[nH]n2)n1 (configuration not stated)	13.04	9.061
CSCC(=O)N1CCc2c(cnc(C)c2-c2noc(-c3cscn3)n2)C1	14.29	16.29
O=C(O)C(F)(F)F.[H][C@@]12COC[C@]1(CNC(=O)c1ccsc1)CN(Cc1nccs1)C2	-	12.66
COC[C@H]1CC[C@H]2[C@H](CCN2S(=O)(=O)Cc2ccccc2)O1	5.263	-
CC(C)(O)CSCCNCc1ccc(Cl)c2cccnc12	-7.463	14.49
O=C(c1ccc[nH]1)N1CCCC1c1nc(-c2ccccc2)n[nH]1 (configuration not stated)	19.35	-10.66
O=C1CCSCC(C(=O)N2CCCC2)N1 (configuration not stated)	9.615	0.1095
CN1C(=O)CC(C(=O)O)C12CCN(Cc1cc(F)ccc1Cl)CC2 (configuration not stated)	19.3	13.07
O=C1CC(c2ccsc2)c2snc(C(=O)O)c2N1 (configuration not stated)	1.37	-0.1808
Cc1cc(C[C@@H]2CCC[C@H]2NCc2cc(C)c(O)c(C)c2)on1	11.11	-
O=C(Cc1ccco1)N1C[C@H]2CCC[C@@]2(COCc2cccnc2)C1	36	-
CC(O)CN1CC(C)(C)CN(C(=O)CCc2ccccc2)CC1=O (configuration not stated)	18.37	5.501
CN(C)S(=O)(=O)N1CC[C@]2(C[C@@H](Oc3cccnc3)CO2)C1	14.55	-
CN(C)CCNC(=O)c1ccc(OC2CCN(C(=O)CO)CC2)c(Cl)c1	8.197	7.594
CCc1nc2ccccc2c(=O)n1CC1(O)CCN(C(=O)COC)CC1	3.125	-
CC(c1ccccc1)N(C)C(=O)CN1CCCc2cc(F)cc(F)c21 (configuration not stated)	3.448	20.77
[H][C@]12CCN(C(=O)NCCc3ccccc3)CC[C@@]1([H])S(=O)(=O)NC2	-	5.165
CN(CC(N)=O)S(=O)(=O)c1ccc(F)cc1F	14.52	9.064
CCC(C)N(Cc1cccnc1)Cc1ccccc1Cn1cccn1 (configuration not stated)	13.16	-14.16
Cc1ccc(CN(CCN(C)C)Cc2ncc[nH]2)s1	5.833	4.646
Cn1cc(CN2CCCCC2c2ccc(-c3cccc(F)c3)nc2)cn1 (configuration not stated)	-1.429	-8.804
O=C(Cn1cc(-n2cccc2)cn1)NCC(F)(F)F	21.05	0.5102
O=C(O)C(F)(F)F.[H][C@@]12COC[C@]1(C(=O)N1CCCO1)CN(Cc1nccs1)C2	-	-2.121
O=c1cc(CN2CC[C@H]3CC[C@@H](C2)N3)c2cccc3c2n1CCC3	20.41	-
Cc1cc(C(=O)N2CC(O)CO2)c2ccc(C)c(C)c2n1 (configuration not stated)	3.297	-28.55
CNS(=O)(=O)CC(=O)N1CCCc2cc(Br)ccc21	-4.938	5.83
CN(C)C(=O)CN1CCCC1c1cccc(Cc2ccccc2F)n1 (configuration not stated)	55.67	24.9
Cc1nc(N2CCCC(OCc3ccccn3)C2)c2c(C)noc2n1 (configuration not stated)	0	5.401
CC(C)CCN(C(=O)Nc1cccc(C(=O)N(C)C)c1)C1CC1	-4.444	-31.67
CCc1csc(C2CCCN(C(=O)c3ccc4c(c3)OCO4)C2)n1 (configuration not stated)	9.434	0.6734

The last 3 entries again:

Result for Cc1nc(N2CCCC(OCc3ccccn3)C2)c2c(C)noc2n1 (configuration not stated) was A: 0%; B: 5.401%.
Result for CC(C)CCN(C(=O)Nc1cccc(C(=O)N(C)C)c1)C1CC1 was A: -4.444%; B: -31.67%.
Result for CCc1csc(C2CCCN(C(=O)c3ccc4c(c3)OCO4)C2)n1 (configuration not stated) was A: 9.434%; B: 0.6734%.

Measurements from “University of Dundee, Small-Polar-MMV Screening Library” (2021), ChEMBL document CHEMBL3988442.